# From article PMC4198113
# No constants are given. Whether binding was seen depends on the method and setting. Some binding calls cover weakened binding; strength is not graded here. Where a sequence is shown, tags or fusion partners need not be part of it.
# T1: Drosophila Tribbles (Trbl), wild type, yeast two-hybrid bait (FLAGTRBL) (Drosophila) (UniProt Q9V3Z1)
# T1 sequence: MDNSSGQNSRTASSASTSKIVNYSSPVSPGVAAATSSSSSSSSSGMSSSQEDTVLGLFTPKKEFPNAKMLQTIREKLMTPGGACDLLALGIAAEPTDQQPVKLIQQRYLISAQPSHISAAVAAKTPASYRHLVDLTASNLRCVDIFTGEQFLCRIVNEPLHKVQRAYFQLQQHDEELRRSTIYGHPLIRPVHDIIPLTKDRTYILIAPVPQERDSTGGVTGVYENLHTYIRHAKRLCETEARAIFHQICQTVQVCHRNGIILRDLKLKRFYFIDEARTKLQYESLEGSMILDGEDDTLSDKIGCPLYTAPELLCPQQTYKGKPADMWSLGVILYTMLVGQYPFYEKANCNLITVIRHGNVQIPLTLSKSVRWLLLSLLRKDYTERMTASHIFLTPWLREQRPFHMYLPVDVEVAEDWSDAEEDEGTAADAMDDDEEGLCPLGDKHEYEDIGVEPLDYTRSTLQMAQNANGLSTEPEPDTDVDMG
# B1: Drosophila Akt1, yeast two-hybrid prey (enzyme, UniProt Q8INB9-2 1-530)
# chain: MSINTTFDLSSPSVTSGHALTEQTQVVKEGWLMKRGEHIKNWRQRYFVLHSDGRLMGYRSKPADSASTPSDFLLNNFTVRGCQIMTVDRPKPFTFIIRGLQWTTVIERTFAVESELERQQWTEAIRNVSSRLIDVGEVAMTPSEQTDMTDVDMATIAEDELSEQFSVQGTTCNSSGVKKVTLENFEFLKVLGKGTFGKVILCREKATAKLYAIKILKKEVIIQKDEVAHTLTESRVLKSTNHPFLISLKYSFQTNDRLCFVMQYVNGGELFWHLSHERIFTEDRTRFYGAEIISALGYLHSQGIIYRDLKLENLLLDKDGHIKVADFGLCKEDITYGRTTKTFCGTPEYLAPEVLDDNDYGQAVDWWGTGVVMYEMICGRLPFYNRDHDVLFTLILVEEVKFPRNITDEAKNLLAGLLAKDPKKRLGGGKDDVKEIQAHPFFASINWTDLVLKKIPPPFKPQVTSDTDTRYFDKEFTGESVELTPPDPTGPLGSIAEEPLFPQFSYQGDMASTLGTSSHISTSTSLASMQ
# Molecular target: T1, Drosophila Tribbles (Trbl), wild type, yeast two-hybrid bait (FLAGTRBL) (Drosophila)
# Assay: two-hybrid; Trbl in the bait vector, Akt1 in the prey vector; yeast growth on HIS- dropout plates with increasing 3-Amino-1,2,4-triazole (3AT), up to 50 mM
binder,measurement,value
B1,binding,binds
